The list shows a part of the results. The main result of the screen is listed elsewhere. These columns were measured beside it and carry no call. The list favours compounds with an active or inconclusive main result. Potencies come from curve fits of mixed quality, noted in brackets.
Assay: qHTS Assay for Lipid Storage Modulators in Drosophila S3 Cells;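 as to cell number change: cells counted by Cell Tracker Red CMTPX staining in the red channel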
Conditions: BODIPY lipid droplet fluorescence, 18-24 h; for cell number change: measured here: cell count max response, cells fed with added oleic acid
Outline: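 Drosophila S3 cells got compounds at several concentrations plus oleic acid (400 uM solution). Laser-scanning cytometry with 488 nm excitation read lipid droplets at 500-530 nm and cells at 575-640 nm. Percent activity was relative to 20 uM Triacsin C.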

[1] = measured here: cell number channel AC50, cells fed with added oleic acid
[2] = measured here: lipid fluorescence (Fed channel) AC50, cells fed with added oleic acid

Structure (SMILES)	cell number change [%]	AC50 [1]	AC50 [2]
CCCCOC(=O)C1=C(C)Nc2nnnn2C1c1ccccc1Cl (stereo unspecified)	-58.2	29.1 µM [falling, single point]	6.51 µM [rising, single point]
CCC(=O)Oc1ccc(/C(CC)=C(\CC)c2ccc(OC(=O)CC)cc2)cc1	3.19	0.259 µM [falling, full curve, poor fit]	0.461 µM [falling, single point]
C=CCOc1ccc(/C=N/n2cncn2)cc1OC	108	18.4 µM [rising, partial curve]	–
CC12CCC(=O)N1C(C(=O)Nc1nc(-c3cc(F)ccc3F)cs1)CS2 (stereo unspecified)	59	18.4 µM [rising, single point]	–
O=c1[nH]c(O)c(/C=C2\C=Nc3ccc(Br)cc32)[nH]1	-12.1	–	–
CC1(C)CC(=O)N(c2cccc(C(F)(F)F)c2)C(=O)C1	2.62	–	5.8 µM [rising, single point]
Cc1[nH]n(-c2ccccc2)c(=O)c1CCOC(=O)c1ccc(C(F)(F)F)cc1	-23.7	–	0.206 µM [falling, full curve, poor fit]
CCN1C2=C(C(=O)CCC2)C(c2ccc(O)c(Br)c2)C2=C1CCCC2=O	-31.8	0.0731 µM [falling, full curve, poor fit]	–
Cc1ccc2nc(SC(C)C(=O)NC3CCCc4ccccc43)[nH]c2c1 (stereo unspecified)	-12.7	–	18.4 µM [falling, single point]
CCn1nccc1C(=O)Nc1ccc(Cl)cn1	-96.9	0.651 µM [falling, full curve]	0.92 µM [falling, full curve, poor fit]
CC(=O)C1=NN(c2ccccc2)C(c2cccs2)N1c1ccc(N(C)C)cc1 (stereo unspecified)	-63.6	16.4 µM [falling, single point]	20.6 µM [falling, partial curve]
Cn1nc(C(=O)OCC(=O)Nc2sccc2C(N)=O)c2ccccc2c1=O	–	1.64 µM [rising, full curve, poor fit]	1.84 µM [rising, partial curve]
CCOc1ccc(S(=O)(=O)N2CCC(C(=O)N3CCCCCC3)CC2)cc1C	–	–	1.16 µM [rising, full curve]
O=C(Nc1cccc(NC(=O)c2cccnc2)c1)c1cccnc1	–	–	6.51 µM [rising, single point]
CCCn1c(CC)nc([N+](=O)[O-])c1Sc1ccc(C)cc1	-15.6	–	0.164 µM [rising, full curve, poor fit]
COc1ccc(Cn2nnnc2C(C(C)C)N2CCN(c3ccccc3OC)CC2)cc1 (stereo unspecified)	29	–	32.6 µM [falling, single point]
Cc1ccc(N(C(=O)CNC(=O)c2ccco2)C(C(=O)NC2CCCC2)c2cccnc2)c(C)c1 (stereo unspecified)	6.41	–	0.116 µM [falling, full curve]
COc1cc(NC(=O)c2cnc(N)s2)cc(C(=O)Nc2cccc(C(F)(F)F)c2)c1	-9	2.06 µM [rising, partial curve, poor fit]	3.26 µM [rising, partial curve]
O=C(C1CCCN(S(=O)(=O)c2ccc(Br)s2)C1)N1CCN(c2ccccc2)CC1 (stereo unspecified)	-7.94	–	0.082 µM [falling, full curve, poor fit]

Structure (SMILES)	cell number change [%]	AC50 [1]	AC50 [2]
C/C(N)=C(/C#N)C(=O)COC(=O)[C@@H](NC(=O)c1ccccc1Cl)C(C)C	41.6	–	16.4 µM [rising, single point]
CC(=O)N1CCN(S(=O)(=O)c2cccc(C(=O)NCCC3=CCCCC3)c2)CC1	-25.7	–	0.92 µM [falling, full curve]
Cc1onc(-c2ccccc2Cl)c1C(=O)N1CCc2ccccc2C1	68.1	16.4 µM [rising, single point]	–
Cc1c(C(=O)N2CCCCC2)sc(NC(=O)C(C)C)c1C#N	-30.7	0.00517 µM [falling, full curve, poor fit]	–
CCC(=O)Nc1cccc2cccnc12	0.551	7.31 µM [falling, partial curve, poor fit]	–
CC1CN(C(=O)CSc2nc(-c3ccc(F)cc3)cs2)CC(C)O1 (stereo unspecified)	-60	–	–
C/C(=N\NC(=O)c1cc(C)oc1C)c1ccc2c(c1)OCO2	-31.9	4.61 µM [falling, full curve, poor fit]	0.231 µM [falling, full curve, poor fit]
COc1ccc(S(=O)(=O)N(CC(=O)N2CCCCCC2)c2ccccc2OC)cc1	-9.21	–	3.55 µM [rising, single point]
Fc1cc(F)nc(NCc2ccccc2)n1	6.31	–	–
CCOC(=O)c1c(Cc2ccc(Cl)cc2)c[nH]c1C	-30.6	29.1 µM [falling, single point]	9.2 µM [falling, single point]
COc1ccc(N(CC(=O)Nc2ccc3c(c2)OCO3)S(=O)(=O)c2ccccc2)c(OC)c1	-12.5	–	0.82 µM [rising, full curve, poor fit]
COc1ccc2nc(C)cc(SCC(=O)OC(C)C)c2c1	-23.4	–	14.6 µM [falling, single point]
CC(C)(C)C(=O)Cn1c(=N)n(Cc2ccccc2)c2ccccc21	-38.8	20.6 µM [falling, single point]	20.6 µM [falling, single point]
Cc1nn(CC(=O)Nc2cc(S(=O)(=O)N3CCOCC3)ccc2Cl)c(C)c1[N+](=O)[O-]	-42.1	32.6 µM [falling, partial curve, poor fit]	0.82 µM [falling, full curve]
Cc1cc(C(=O)Nc2nc3c(C)cccc3s2)c(C)o1	–	–	5.8 µM [rising, single point]
N#Cc1ccccc1NC(=O)C1SC(=Nc2ccccc2)C(C(=O)Nc2ccc(Cl)cc2)=C1N (stereo unspecified)	-35.3	23.1 µM [falling, partial curve]	20.6 µM [falling, single point]
Cc1cccc(N=Nc2c(O)[nH]c3ccc(F)cc23)c1	-18.2	–	29.1 µM [falling, partial curve]
COc1nc(Nc2ccc(O)cc2)nc(OC(C(F)(F)F)C(F)(F)F)n1	-41.7	29.1 µM [falling, single point]	–
Cc1cccc(C(=O)NC(CC(=O)O)c2ccc(OC3CCCC3)cc2)c1[N+](=O)[O-] (stereo unspecified)	-2.23	–	0.00461 µM [falling, full curve, poor fit]

A different layout for 5 compounds above.
Structure (SMILES),cell number change [%],AC50 [1],AC50 [2]
CC(=O)N1CCN(S(=O)(=O)c2cccc(C(=O)NCCC3=CCCCC3)c2)CC1,-25.7,–,"0.92 µM [falling, full curve]"
CC1CN(C(=O)CSc2nc(-c3ccc(F)cc3)cs2)CC(C)O1 (stereo unspecified),-60,–,–
CCOC(=O)c1c(Cc2ccc(Cl)cc2)c[nH]c1C,-30.6,"29.1 µM [falling, single point]","9.2 µM [falling, single point]"
COc1ccc2nc(C)cc(SCC(=O)OC(C)C)c2c1,-23.4,–,"14.6 µM [falling, single point]"
Cc1cc(C(=O)Nc2nc3c(C)cccc3s2)c(C)o1,–,–,"5.8 µM [rising, single point]"

(continued)

Structure (SMILES)	cell number change [%]	AC50 [1]	AC50 [2]
CC(=O)NCCc1nc2cc(NC(=O)c3ccccc3Cl)ccc2n1C	27.5	–	25.9 µM [rising, single point]
Cc1c(NC(=O)CSc2nc3ccccc3s2)c(=O)n(-c2ccccc2)n1C	66	2.91 µM [rising, full curve]	2.91 µM [rising, full curve]
O=C(/C=C/c1ccccc1)CC(O)(c1ccccc1)C(F)(F)F (stereo unspecified)	-91	20.6 µM [falling, single point]	–
CC(CC(=O)Nc1ccc(S(=O)(=O)N2CCOCC2)cc1)c1ccccc1 (stereo unspecified)	–	–	2.59 µM [falling, partial curve]
O=C(C1=C[C@H](c2ccccc2)C[C@H](OCCCCO)O1)N1CCN(Cc2ccc3c(c2)OCO3)CC1	-25.6	–	23.1 µM [falling, single point]
Clc1ccc(CSc2nnc3ccccn23)c(Cl)c1	10.5	–	11.6 µM [rising, single point]
COc1ccc(NC2CCCN(C(=O)c3cccs3)C2)cc1 (stereo unspecified)	-0.708	–	1.64 µM [falling, partial curve]
CC(=O)Nc1ccc(NC(=O)CCCSc2nc3ccccc3s2)cc1	153	18.4 µM [rising, single point]	–
CCN(CC)c1ccc(/C=C2\C(=O)N(c3nnc(C)c(=O)[nH]3)N=C2C)cc1	-18	–	–
O=C(COC(=O)CCc1nc2ccccc2c(=O)[nH]1)NC1CCS(=O)(=O)C1 (stereo unspecified)	-24.1	–	–
Cc1cc(Cl)nc(-c2ccccc2)n1	11.6	–	32.6 µM [rising, single point]
Cc1cc(=O)oc2cc(OC(=O)CCCCCN3C(=O)c4ccccc4C3=O)ccc12	31.4	29.1 µM [rising, single point]	29.1 µM [rising, partial curve, poor fit]
CCC1(c2ccccc2)NC(=O)N(CC(=O)NCc2ccc(OC)cc2)C1=O (stereo unspecified)	11.7	–	0.13 µM [rising, full curve, poor fit]
C=C(C)CSC1=C(C#N)C(c2ccccc2Cl)CC(=O)N1 (stereo unspecified)	41.6	0.00517 µM [rising, full curve, poor fit]	–
CCOc1cc(C2Nc3cccc4cccc(c34)N2)ccc1O	-3.34	0.116 µM [falling, full curve, poor fit]	0.231 µM [falling, full curve]
CCOC(=O)c1sc(NC(=O)CSc2n[nH]c(CC)n2)nc1C	-47.5	29.1 µM [falling, single point]	3.26 µM [falling, partial curve]
CC(Oc1ccc([N+](=O)[O-])cc1Cl)C(=O)Nc1ccc(C(N)=O)cc1 (stereo unspecified)	-25.2	0.103 µM [falling, full curve]	–
COc1ccc(-c2csc(NC(=O)CN3C(=O)NC4(CCCC4)C3=O)n2)cc1	–	1.64 µM [rising, partial curve, poor fit]	–
